Measurements as given in article PMC5610320.
Results are given in words; binding and its absence hold for the method and conditions named. In cells and extracts the contact can be indirect. Some entries that bind do so weakly or less than the wild type. Sequences can lack the tags named with a protein.

T1: glutathione S-transferase (GST)-fused CIB1 (human) (UniProt Q99828)
T1 sequence: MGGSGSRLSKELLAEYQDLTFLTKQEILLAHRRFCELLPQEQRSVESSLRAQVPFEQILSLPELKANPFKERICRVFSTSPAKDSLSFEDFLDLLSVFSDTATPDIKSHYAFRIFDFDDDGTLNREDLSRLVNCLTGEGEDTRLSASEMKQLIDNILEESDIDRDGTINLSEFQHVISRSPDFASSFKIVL


Experiments:
[1] = target: T1, glutathione S-transferase (GST)-fused CIB1 (human); assay: pull-down; GST-CIB1 immobilised on glutathione-agarose beads; 35S-labelled in vitro translated ASK1 variants incubated for 4 h at 4 °C in a binding buffer; SDS-PAGE and autoradiography; only the target purified
Myc-ASK1 = Myc-ASK1 (UniProt Q99683); assay: co-IP; transfected SH-SY5Y cells with or without ectopically expressed CIB1 (Fig. S4; its legend was not shown, the method is taken from the paper's co-immunoprecipitation methods)

| binding [1] | binding (Myc-ASK1) | Binder |
| --- | --- | --- |
| binds | – | ASK1 (378-648) (domain or fragment, UniProt Q99683 378-648, 35S-methionine label) MVQSEGQVASDMYCLVGRIYKDMFLDSNFTDTESRDHGASWFKKAFESEPTLQSGINYAVLLLAAGHQFESSFELRKVGVKLSSLLGKKGNLEKLQSYWEVGFFLGASVLANDHMRVIQASEKLFKLKTPAWYLKSIVETILIYKHFVKLTTEQPVAKQELVDFWMDFLVEATKTDVTVVRFPVLILEPTKIYQPSYLSINNEVEEKTISIWHVLPDDKKGIHEWNFSASSVRGVSISKFEERCCFLYVLHNSDDFQIYFCTELHCKKFFE |
| – | binds | Flag epitope-tagged CIB1 (Flag-CIB1) (protein, UniProt Q99828 1-191) MGGSGSRLSKELLAEYQDLTFLTKQEILLAHRRFCELLPQEQRSVESSLRAQVPFEQILSLPELKANPFKERICRVFSTSPAKDSLSFEDFLDLLSVFSDTATPDIKSHYAFRIFDFDDDGTLNREDLSRLVNCLTGEGEDTRLSASEMKQLIDNILEESDIDRDGTINLSEFQHVISRSPDFASSFKIVL |
